Measurements taken from US20150336881A1, “AMIDE COMPOUND AND USE THEREOF FOR PEST CONTROL” (Sumitomo Chemical Company, Limited, priority 2012, published 2015).
Some results were stated once for a whole list of compounds, not compound by compound. For at least one compound, name, drawing or mass did not settle the structure.

Key:
Format in all cases: in vivo
Aphis gossypii [1] = experiment: Test Example 1: foliar spray on cucumber seedling inoculated with Aphis gossypii; details: 500 ppm active ingredient, 20 ml sprayed on cucumber seedling, Aphis gossypii (whole stage), six days after spraying
Nilaparvata lugens [2] = experiment: Test Example 3: foliar spray on rice seedling, Nilaparvata lugens larvae released; details: 500 ppm, 10 ml sprayed on rice seedling, third-fourth instar larvae of Nilaparvata lugens, after 6 days
Nilaparvata lugens [3] = experiment: Test Example 4: soil drench of rice seedling, Nilaparvata lugens larvae released; details: 500 ppm, 5 ml drenched at foot of rice seedling, 7 days, then third-fourth instar larvae of Nilaparvata lugens, 6 days
Bemisia tabaci = experiment: Test Example 5: spray on tomato seedling with Bemisia tabaci instar larvae; details: 500 ppm, 20 ml/cup sprayed on tomato seedling, after 7 days
Aphis gossypii [4] = experiment: Test Example 2: soil drench of cucumber seedling, then inoculation with Aphis gossypii; details: 500 ppm, 5 ml drenched at foot of cucumber seedling, 7 days at 25° C., then Aphis gossypii inoculated, 6 days

SMILES	controlling value (Aphis gossypii [1])	controlling value (Nilaparvata lugens [2])	controlling value (Nilaparvata lugens [3])	controlling value (Bemisia tabaci)	controlling value (Aphis gossypii [4])
CCS(=O)(=O)c1cc(C(F)(F)F)ccc1C(=O)Nc1cc(F)cc(F)c1 [Intermediate Compound M6-14]	≥ 90%	–	–	–	–
CCSc1cc(C(F)(F)F)ccc1C(=O)N(C)c1cc(Cl)cc(Cl)c1 [compound 6]	–	≥ 90%	–	–	–
CCS(=O)(=O)c1cc(C(F)(F)F)ccc1C(=O)N(C)c1ccc(C(F)(F)F)cc1 [compound 8]	–	–	≥ 90%	–	–
CCS(=O)(=O)c1cc(C(F)(F)F)ccc1C(=O)N(C)c1ccc(C(F)(F)C(F)(F)F)cc1 [compound 10]	–	–	≥ 90%	–	–
CCS(=O)(=O)c1cc(C(F)(F)F)ccc1C(=O)N(C)c1ccc([S+]([O-])C(F)(F)F)cc1 (centres unmarked) [compound 12]	–	–	≥ 90%	–	–
CCSc1ccccc1C(=O)N(C)c1ccc(C(F)(F)C(F)(F)F)cc1 [compound 18]	≥ 90%	≥ 90%	≥ 90%	≥ 90%	≥ 90%
CCSc1ccccc1C(=O)N(C)c1ccc(SC(F)(F)F)cc1 [compound 19]	≥ 90%	≥ 90%	–	≥ 90%	≥ 90%
CCS(=O)(=O)c1ccccc1C(=O)N(C)c1ccc(C(F)(F)C(F)(F)F)cc1 [compound 25]	≥ 90%	–	–	≥ 90%	≥ 90%
CCS(=O)(=O)c1ccccc1C(=O)N(C)c1ccc(SC(F)(F)F)cc1 [compound 26]	≥ 90%	–	–	≥ 90%	≥ 90%
CCS(=O)(=O)c1cc(C(F)(F)F)ccc1C(=O)N(C)c1ccc(Br)cc1 [compound 45]	≥ 90%	–	–	–	–
CCSc1cc(C(F)(F)F)ccc1C(=O)N(C)c1cccc(OC(F)(F)F)c1 [compound 58]	–	≥ 90%	–	–	–
CCSc1cc(C(F)(F)F)ccc1C(=O)N(C)c1ccc(C(F)(F)F)c(Cl)c1 [compound 68]	–	≥ 90%	–	–	–
CCS(=O)(=O)c1cc(C(F)(F)F)ccc1C(=O)N(C)c1ccc(OC(F)(F)F)c(Br)c1 [compound 78]	≥ 90%	–	–	–	–
CCS(=O)(=O)c1cc(C#N)ccc1C(=O)N(C)c1ccc(SC(F)(F)F)cc1 [compound 90]	–	–	–	≥ 90%	≥ 90%
